Assay results reported in the supplement of paper PMC10849652.
The other results are listed elsewhere or left out.

How the values were obtained:
Test in all cases: log2 fold change, soluble protein after heating vs DMSO (PISA); higher = thermal stabilisation; K562 cells, 10 uM, 30 min; active = over 0.2 and 3.5 SD of the protein, either way, in both replicates (recomputed)
[1] = compound: COC1=CC=C(C=C1)CN2C=CC3=C2C=C(C=C3)C(=O)NO
How it was run: (§1)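 Aliquots of K562 cells (2×10^6 cells/mL) treated with 10 μM compound for 30 min were heated for 3 min over 48°C-58°C. After pooling and extraction in PBS with 0.5% NP-40 at 4°C, soluble protein from a 21,000xg, 90 min spin was quantified by TMTpro 16plex LC-MS/MS with channel sums equalised. Thermal stability is expressed against control samples, from duplicates, as a log2 fold change.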

filanesib = compound: CON(C)C(=O)N1N=C(c2cc(F)ccc2F)S[C@@]1(CCCN)c1ccccc1 [filanesib]
How it was run: as §1

zotarolimus = compound: CO[C@H]1C[C@@H]2CC[C@@H](C)[C@@](O)(O2)C(=O)C(=O)N2CCCC[C@H]2C(=O)O[C@H]([C@H](C)C[C@@H]2CC[C@H](n3cnnn3)[C@H](OC)C2)CC(=O)[C@H](C)/C=C(\C)[C@@H](O)[C@@H](OC)C(=O)[C@H](C)C[C@H](C)/C=C/C=C/C=C/1C [zotarolimus]
How it was run: as §1

idasanutlin = compound: COc1cc(C(=O)O)ccc1NC(=O)[C@@H]1N[C@@H](CC(C)(C)C)[C@](C#N)(c2ccc(Cl)cc2F)[C@H]1c1cccc(Cl)c1F [idasanutlin]
How it was run: as §1

alisertib = compound: COc1cc(Nc2ncc3c(n2)-c2ccc(Cl)cc2C(c2c(F)cccc2OC)=NC3)ccc1C(=O)O [alisertib]
How it was run: as §1

[2] = compound: COc1cc2nc(-c3cc(F)ccc3O)nc(N[C@@H]3CNC[C@H]3C(C)(C)O)c2cc1OC
How it was run: as §1

gefitinib = compound: COc1cc2ncnc(Nc3ccc(F)c(Cl)c3)c2cc1OCCCN1CCOCC1 [gefitinib]
How it was run: as §1

[3] = compound: COc1cccc2cc(-c3nc([C@H]4CC[C@H](C(=O)O)CC4)n4ncnc(N)c34)[nH]c12
How it was run: as §1

lapatinib = compound: CS(=O)(=O)CCNCc1ccc(-c2ccc3ncnc(Nc4ccc(OCc5cccc(F)c5)c(Cl)c4)c3c2)o1 [lapatinib]
How it was run: as §1

pictilisib = compound: CS(=O)(=O)N1CCN(Cc2cc3nc(-c4cccc5[nH]ncc45)nc(N4CCOCC4)c3s2)CC1 [pictilisib]
How it was run: as §1

Measured: log2 fold change

PPP6R3 isoform 5 (UniProt Q5H9R7)
inactive: [1] -0.015 | filanesib -0.041 | zotarolimus 0.019 | idasanutlin -0.041 | alisertib -0.052 | [2] -0.001 | gefitinib 0 | [3] 0.04 | lapatinib 0.007 | pictilisib 0.03

PRADC1 (UniProt Q9BSG0)
inactive: [1] 0.003 | filanesib 0.059 | zotarolimus 0.065 | alisertib -0.182 | [3] -0.127 | pictilisib 0.12

PRELID1 (UniProt Q9Y255)
inactive: [1] 0.392 | filanesib 0.013 | alisertib -0.054 | [2] 0.179 | gefitinib 0.047 | [3] -0.164 | lapatinib 0.061 | pictilisib 0.057

PPP1R12A (UniProt O14974)
inactive: [1] 0.003 | filanesib 0.064 | zotarolimus 0.048 | idasanutlin 0.041 | alisertib 0.028 | gefitinib 0.009 | [3] -0.006 | lapatinib 0.036 | pictilisib 0.005
active: [2] -0.658

PPP6R2 isoform 5 (UniProt O75170)
inactive: [1] -0.066 | filanesib -0.009 | zotarolimus 0.022 | idasanutlin -0.055 | alisertib 0.016 | [2] -0.011 | gefitinib 0.009 | [3] 0.054 | lapatinib 0.018 | pictilisib -0.007

PRKRIP1 (UniProt Q9H875)
inactive: [1] -0.018 | filanesib -0.011 | zotarolimus -0.086 | idasanutlin 0.004 | alisertib -0.044 | [2] 0.058 | gefitinib 0 | [3] 0.031 | lapatinib 0.035 | pictilisib 0.035

PRPSAP1 isoform 2 (UniProt Q14558)
inactive: [1] -0.029 | filanesib 0.013 | zotarolimus 0.015 | idasanutlin 0.017 | alisertib -0.107 | [2] -0.042 | gefitinib -0.037 | [3] 0.015 | lapatinib 0.057 | pictilisib -0.026

PRG4 (UniProt Q92954)
active: zotarolimus -0.955
inactive: [1] 0.17 | filanesib 0.081 | idasanutlin 0.174 | alisertib 0.01 | gefitinib 0.034 | [3] 0.229 | pictilisib -0.062

PROSER3, A0A2R8Y8D9
inactive: filanesib 0.014 | zotarolimus 0.013 | idasanutlin 0.24 | alisertib -0.14 | [3] 0.365

PPP2R2A, A0A590UJJ1
inactive: idasanutlin -0.072 | pictilisib -0.016

PRKCSH isoform 2 (UniProt P14314)
inactive: [1] 0.045 | zotarolimus 0.016 | idasanutlin 0.125 | alisertib -0.057 | gefitinib -0.037 | [3] 0.044 | pictilisib -0.24

PRR16 (UniProt Q569H4)
inactive: pictilisib -0.299

PPP1R12C (UniProt Q9BZL4)
inactive: filanesib 0.066 | alisertib 0.071 | [2] -0.237 | gefitinib 0.074 | [3] -0.009 | lapatinib 0.084 | pictilisib -0.228

PRKD2 (UniProt M0R346)
inactive: filanesib 0.038 | pictilisib 0.06

PPP2R5C isoform 2 (UniProt Q13362)
inactive: [1] 0.159 | alisertib 0.005 | [3] -0.009

PRNP (UniProt P04156)
inactive: filanesib 0.174 | alisertib -0.244 | [3] 0.003 | pictilisib -0.017

PRR4 (UniProt Q16378)
inactive: [1] 0.483 | idasanutlin 0.17 | alisertib 0.206 | gefitinib 0.157 | [3] -0.073

PROSER3 (UniProt Q2NL68)
inactive: zotarolimus 0.12 | [2] -0.11 | gefitinib -0.053 | lapatinib 0.111

PRELID3B (UniProt Q9Y3B1)
inactive: idasanutlin 0.695 | [2] -0.592 | lapatinib 0.251 | pictilisib 0.146

PRKX (UniProt P51817)
inactive: alisertib 0.014 | [3] 0.098

PRR14L (UniProt Q5THK1)
inactive: zotarolimus -0.083 | idasanutlin 0 | [2] 0.069 | gefitinib -0.065 | lapatinib 0.1 | pictilisib 0.103

PRRG1 (UniProt O14668)
inactive: [1] -0.098 | alisertib -0.144 | [2] -0.028 | [3] 0.013 | lapatinib 0.092 | pictilisib 0.022

PPP2R5B (UniProt Q15173)
inactive: idasanutlin -0.065 | alisertib 0.088 | [2] 0.148 | gefitinib -0.079 | [3] -0.058 | lapatinib 0.051 | pictilisib 0.01

2 records drawn at random from the list so far, as already listed:
PRADC1 (UniProt Q9BSG0)
inactive: [1] 0.003 | filanesib 0.059 | zotarolimus 0.065 | alisertib -0.182 | [3] -0.127 | pictilisib 0.12

PRR16 (UniProt Q569H4)
inactive: pictilisib -0.299

Going on with the list.

PRMT2 (UniProt P55345)
inactive: filanesib -0.03

PPP1R12B isoform 6 (UniProt O60237)
inactive: gefitinib 0.077

PRIMPOL (UniProt Q96LW4)
inactive: filanesib 0.147 | zotarolimus -0.021 | idasanutlin 0.055 | [2] 0.45 | lapatinib 0

PRPF39 (UniProt Q86UA1)
inactive: zotarolimus 0.092 | [2] 0.038 | lapatinib -0.091

PRG2 (UniProt P13727)
inactive: [1] -0.05 | zotarolimus -0.006 | alisertib -0.1 | [2] -0.083 | [3] -0.133 | lapatinib 0.005

PPP2R3B (UniProt Q9Y5P8)
inactive: idasanutlin -0.336 | alisertib -0.036 | gefitinib 0.013 | [3] -0.149

PPP1R3D (UniProt O95685)
inactive: [1] -0.025 | zotarolimus -0.035 | alisertib -0.276 | gefitinib 0.045 | [3] 0.021 | pictilisib -0.299

PPP1R21 (UniProt Q6ZMI0)
inactive: filanesib 0.045 | zotarolimus 0.019 | idasanutlin -0.005 | [2] 0.04 | gefitinib 0.011 | lapatinib -0.025 | pictilisib -0.091

PPP1R13L (UniProt Q8WUF5)
inactive: [2] 0.159 | gefitinib -0.033 | lapatinib 0.009 | pictilisib -0.034

PPP1CC (UniProt F8W1A0)
inactive: alisertib 0.392 | [3] -0.589 | pictilisib -0.012

PRDM2 (UniProt Q13029)
inactive: [1] -0.261 | zotarolimus -0.148 | idasanutlin 0.051 | alisertib -0.158 | [2] -0.009 | gefitinib -0.174 | [3] -0.136 | lapatinib 0.015 | pictilisib 0.038

PRH1 (UniProt P02810)
inactive: gefitinib 0.55

PRC1 (UniProt O43663)
inactive: filanesib -0.026 | zotarolimus 0.048 | idasanutlin -0.013

PROSER1 (UniProt Q86XN7)
inactive: filanesib 0.084 | [2] 0.046 | lapatinib 0.025

PPP2R1B (UniProt H0YDG7)
inactive: filanesib 0.244 | zotarolimus -0.06 | alisertib 0.143 | gefitinib 0.017 | [3] 0.178 | pictilisib 0.57

PRR12 (UniProt Q9ULL5)
inactive: filanesib -0.087

PPTC7 (UniProt Q8NI37)
inactive: [1] -0.181 | pictilisib 0.237

PRF1 (UniProt P14222)
inactive: filanesib 0.056 | [2] 0.163 | lapatinib 0.009
